In this assay the target is T1, 572 amino acid kinetochore-binding region of CENP-F (amino acids 2638-3210) bait (UniProt P49454).
T1 sequence (looked up): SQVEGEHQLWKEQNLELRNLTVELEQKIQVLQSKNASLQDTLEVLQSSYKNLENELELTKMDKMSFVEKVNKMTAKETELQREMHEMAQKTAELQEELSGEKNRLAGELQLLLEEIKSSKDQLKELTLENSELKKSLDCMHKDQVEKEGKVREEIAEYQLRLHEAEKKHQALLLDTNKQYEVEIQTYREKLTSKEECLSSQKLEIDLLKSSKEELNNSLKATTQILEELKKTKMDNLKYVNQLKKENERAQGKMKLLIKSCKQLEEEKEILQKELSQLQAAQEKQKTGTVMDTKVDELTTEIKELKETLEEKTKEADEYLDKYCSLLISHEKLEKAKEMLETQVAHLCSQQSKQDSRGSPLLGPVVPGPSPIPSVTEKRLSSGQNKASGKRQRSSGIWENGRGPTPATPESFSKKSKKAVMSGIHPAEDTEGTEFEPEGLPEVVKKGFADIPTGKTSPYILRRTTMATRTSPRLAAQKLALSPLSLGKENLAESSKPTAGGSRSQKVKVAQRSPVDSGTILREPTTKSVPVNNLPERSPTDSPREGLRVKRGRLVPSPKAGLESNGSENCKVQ
Briefly: yeast two-hybrid screen.

These are yes or no findings as the source states them, for the method shown. Some entries that bind do so weakly or less than the wild type.

B1: huBUB1B two-hybrid clone Fint 309 (protein)
chain: KQALSSHMYSASLLRLSQPAAGGVLTCEAELGVEACRLTDTDAAIAEDPPGSAAIAEDPPDAIAGLQAEWMQMSSLGTVDAPNFIVGNPWDDKLIFKLLSGLSKPVSSYPNTFEWQCKLPAIKPKTEFQLGSKLVYVHHLLGEGAFAQVYEATQGDLNDAKNKQKFVLKVQKPANPWEFYIGTQLMERLKPSMQHMFMKFYSAHLFQNGSVLVGELYSYGTLLNAINLYKNTPEKVMPQGLVISFAMRMLYMIEQVHDCEIIHGDIKPDNFILGNGFLEQDDEDDLSAGLALIDLGQSIDMKLFPKGTIFTAKCETSGFQCVEMLSNKPWNYQIDYFGVAATVYCMLFGTYMKVKNEGGECKPEGLFRRLPHLDMWNEFFHVMLNIPDCHHLPSLDLLRQKLKKVFQQHYTNKIRALRNRLIVLLLECKRSRK
Take B1: the binding entry was “binds”.

Source of the values: patent US6593098.
